Results are given in words; binding and its absence hold for the method and conditions named. In cells and extracts the contact can be indirect. A result given as binding can be weak or reduced; the word gives no strength.
Target: T1, SETD8 (lysine methyltransferase 5A) (human (endogenous in A673 and other ES cell lines)) (UniProt Q9NQR1)
T1 sequence: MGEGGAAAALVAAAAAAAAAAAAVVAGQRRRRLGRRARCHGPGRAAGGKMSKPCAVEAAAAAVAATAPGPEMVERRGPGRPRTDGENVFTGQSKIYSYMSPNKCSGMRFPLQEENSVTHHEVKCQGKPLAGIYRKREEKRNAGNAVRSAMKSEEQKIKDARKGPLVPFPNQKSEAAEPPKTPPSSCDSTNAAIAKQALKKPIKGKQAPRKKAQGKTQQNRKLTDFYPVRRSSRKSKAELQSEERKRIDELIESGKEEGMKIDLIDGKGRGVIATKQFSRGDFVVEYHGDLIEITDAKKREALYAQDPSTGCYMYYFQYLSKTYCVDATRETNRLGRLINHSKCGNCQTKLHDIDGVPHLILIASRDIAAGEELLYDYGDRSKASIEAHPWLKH
Test: co-IP; ES cell lysates incubated with primary antibodies overnight, beads 4 h, Western blot; normal IgG as negative control; also after mutation of Ser102 of YBX1 and after SETD8 knockdown

Amino acid sequences for entries named in this document (tags omitted). A change or cut given only in a name is not applied to a line headed by its entry.
UniProt P67809: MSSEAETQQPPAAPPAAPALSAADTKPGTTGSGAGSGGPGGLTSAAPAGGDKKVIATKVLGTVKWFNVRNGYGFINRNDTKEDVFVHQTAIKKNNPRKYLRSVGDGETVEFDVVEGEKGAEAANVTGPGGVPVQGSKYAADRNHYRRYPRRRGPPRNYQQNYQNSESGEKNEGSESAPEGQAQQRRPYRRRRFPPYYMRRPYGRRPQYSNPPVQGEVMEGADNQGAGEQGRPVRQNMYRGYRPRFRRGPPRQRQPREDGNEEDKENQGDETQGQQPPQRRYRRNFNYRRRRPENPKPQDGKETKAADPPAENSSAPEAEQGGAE

## YBX1 with mutated Ser102 (from UniProt P67809)
  binding: binds

Source: PMC11237091
